Assay results from patent US20260345654A1, “2,8-DIHYDROXYQUINOLINE GLUCURONIDE DERIVATIVES WITH ENHANCED PROPERTIES FOR USE AS ANTICANCER, ANTIVIRAL, ANTIMICROBIAL, AND OTHER THERAPEUTIC APPLICATIONS” (priority 2023, published 2026).

System: beta-glucosidase
Assay: Requirement of beta-glucosidase for activity / cleavage

Structure (SMILES): O=C(O)[C@H]1O[C@@H](Oc2ccc3cccc(O)c3n2)[C@H](O)[C@@H](O)[C@@H]1O [G2-8HQ, 8-Hydroxy-2-quinolinyl beta-D-glucopyranosiduronic acid]
- Require Beta glucosidase: beta-glucosidase is not required and active without beta-glucosidase and No
